The supplement of paper PMC10331698
± gives the standard deviation of the averaged measurements. Most entries show no effect beyond the scatter of the controls.

Columns and labels:
Assay in all cases: level (log10 ratio to DMSO vehicle control); higher = higher biomarker level / cell amount than vehicle control
[1] = compound: C=CC(=O)OCC(F)(F)C(F)(F)C(F)(F)COC(=O)C=C [1H,1H,5H,5H-Perfluoro-1,5-pentanediol diacrylate]; conditions: 2200 nM; in DMSO
Procedure: (§1)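 BioMAP Diversity Plus panel of 12 human primary cell co-culture systems (3C, 4H, LPS, SAg, BT, BF4T, BE3C, CASM3C, HDF3CGF, KF3CT, MyoF, Mphg). Compounds were added 1 h before stimulation and left for 24 h (MyoF 48 h; BT 72 h for soluble read-outs or 6 d for IgG). Biomarkers were read by ELISA, cytotoxicity by SRB, PBMC viability and proliferation by Alamar Blue. Each well value was divided by the mean of 8 DMSO control wells on the same plate and log10 transformed; duplicate blinded samples were tested at 4 concentrations.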

[2] = compound: OCCCC(F)(F)C(F)(F)C(F)(F)C(F)(F)C(F)(F)C(F)(F)C(F)(F)F [7:3 Fluorotelomer alcohol]; conditions: 2200 nM; in DMSO
Procedure: as §1

[3] = compound: O=S(=O)(O)C(F)(F)C(F)(F)C(F)(F)C(F)(F)C(F)(F)C(F)(F)F [Perfluorohexanesulfonic acid]; conditions: 2200 nM; in DMSO
Procedure: as §1

[4] = compound: O=C(O)C(F)(F)C(F)(F)C(F)(F)C(F)(F)C(F)(F)C(F)(F)C(F)(F)C(F)(F)C(F)(F)C(F)(F)C(F)(F)C(F)(F)C(F)(F)F [Perfluorotetradecanoic acid]; conditions: in DMSO
Procedure: as §1

[5] = compound: C=CC(=O)OCCC(F)(F)C(F)(F)C(F)(F)C(F)(F)F [2-(Perfluorobutyl)ethyl acrylate]; conditions: 2200 nM; in DMSO
Procedure: as §1

[6] = compound: O=C(Cl)C(F)(F)C(F)(F)C(F)(F)C(=O)Cl [Hexafluoroglutaryl chloride]; conditions: 2200 nM; in DMSO
Procedure: as §1

[7] = compound: O=C(O)C=C(C(F)(F)F)C(F)(F)F [3,3-Bis(trifluoromethyl)-2-propenoic acid]; conditions: in DMSO
Procedure: as §1

[8] = compound: O=S(=O)(O)CCC(F)(F)C(F)(F)C(F)(F)C(F)(F)F [4:2 Fluorotelomer sulfonic acid]; conditions: 2200 nM; in DMSO
Procedure: as §1

Perfluoro-1-iodohexane = compound: FC(F)(F)C(F)(F)C(F)(F)C(F)(F)C(F)(F)C(F)(F)I [Perfluoro-1-iodohexane]; conditions: in DMSO
Procedure: as §1

[9] = compound: FC(F)(F)C(F)(C(F)(F)F)C(F)(F)C(F)(F)CC1CO1 [3-(Perfluoro-3-methylbutyl)-1,2-propenoxide]; conditions: in DMSO
Procedure: as §1

Hexafluoroamylene glycol = compound: OCC(F)(F)C(F)(F)C(F)(F)CO [Hexafluoroamylene glycol]; conditions: 2200 nM; in DMSO
Procedure: as §1

[10] = compound: FC(F)(I)C(F)(F)C(F)(F)C(F)(F)C(F)(F)C(F)(F)I [1,6-Diiodoperfluorohexane]; conditions: 2200 nM; in DMSO
Procedure: as §1

[11] = compound: C=CC(=O)OCCC(F)(F)C(F)(F)C(F)(F)C(F)(F)C(F)(F)C(F)(F)C(F)(F)C(F)(F)F [8:2 Fluorotelomer acrylate]; conditions: 2200 nM; in DMSO
Procedure: as §1

3C:CCL2/MCP-1
level (log10) [1]: -0.0095 ± 0.043
level (log10) [2]: 0.0055 ± 0.022
level (log10) [3]: -0.021 ± 0.035
level (log10) ([4]; 740 nM): 0.0005 ± 0.013
level (log10) ([4]; 2200 nM): -0.019 ± 0.011
level (log10) [5]: -0.002 ± 0.021
level (log10) [6]: 0.045 ± 0.02
level (log10) ([7]; 2200 nM): -0.0025 ± 0.0064
level (log10) ([7]; 6700 nM): 0.001 ± 0.011
level (log10) ([7]; 20000 nM): -0.0065 ± 0.0064
level (log10) ([7]; 60000 nM): 0.0015 ± 0.037
level (log10) [8]: 0.0065 ± 0.054
level (log10) (Perfluoro-1-iodohexane; 2200 nM): -0.0055 ± 0.015
level (log10) (Perfluoro-1-iodohexane; 6700 nM): -0.0105 ± 0.0021
level (log10) (Perfluoro-1-iodohexane; 20000 nM): -0.006 ± 0.02
level (log10) (Perfluoro-1-iodohexane; 60000 nM): 0.003 ± 0.047
level (log10) ([9]; 740 nM): 0.0225 ± 0.033
level (log10) ([9]; 2200 nM): -0.0025 ± 0.00071
level (log10) (Hexafluoroamylene glycol): 0.018 ± 0.0042
level (log10) [10]: 0.02 ± 0.016
level (log10) [11]: -0.002 ± 0.016

SAg:SRB
level (log10) [1]: 0.005 ± 0.025
level (log10) [2]: -0.001 ± 0.011
level (log10) [3]: -0.0155 ± 0.012
level (log10) ([4]; 740 nM): -0.002 ± 0.0099
level (log10) ([4]; 2200 nM): -0.024 ± 0.0057
level (log10) [5]: 0.01 ± 0.0099
level (log10) [6]: 0.0005 ± 0.015
level (log10) ([7]; 2200 nM): 0.011 ± 0.0057
level (log10) ([7]; 6700 nM): 0.0025 ± 0.0021
level (log10) ([7]; 20000 nM): -0.006 ± 0.0085
level (log10) ([7]; 60000 nM): -0.0275 ± 0.005
level (log10) [8]: 0.0015 ± 0.0078
level (log10) (Perfluoro-1-iodohexane; 2200 nM): 0.0045 ± 0.012
level (log10) (Perfluoro-1-iodohexane; 6700 nM): -0.0075 ± 0.011
level (log10) (Perfluoro-1-iodohexane; 20000 nM): -0.002 ± 0.0014
level (log10) (Perfluoro-1-iodohexane; 60000 nM): -0.0045 ± 0.011
level (log10) ([9]; 740 nM): 0.004 ± 0.013
level (log10) ([9]; 2200 nM): 0.0125 ± 0.0092
level (log10) (Hexafluoroamylene glycol): 0.0055 ± 0.018
level (log10) [10]: 0.015 ± 0.02
level (log10) [11]: -0.006 ± 0.0042

HDF3CGF:CD106/VCAM-1
level (log10) [1]: -0.256 ± 0.087
level (log10) [2]: -0.062 ± 0.058
level (log10) [3]: -0.0215 ± 0.0035
level (log10) ([4]; 740 nM): -0.027 ± 0.05
level (log10) ([4]; 2200 nM): 0.0015 ± 0.0078
level (log10) [5]: -0.0305 ± 0.0035
level (log10) [6]: -0.001 ± 0.016
level (log10) ([7]; 2200 nM): -0.0375 ± 0.03
level (log10) ([7]; 6700 nM): -0.0485 ± 0.021
level (log10) ([7]; 20000 nM): -0.0795 ± 0.005
level (log10) ([7]; 60000 nM): -0.17 ± 0.013
level (log10) [8]: 0.019 ± 0.037
level (log10) (Perfluoro-1-iodohexane; 2200 nM): -0.0545 ± 0.04
level (log10) (Perfluoro-1-iodohexane; 6700 nM): -0.027 ± 0.024
level (log10) (Perfluoro-1-iodohexane; 20000 nM): -0.032 ± 0.014
level (log10) (Perfluoro-1-iodohexane; 60000 nM): -0.405 ± 0.44
level (log10) ([9]; 740 nM): 0.0095 ± 0.012
level (log10) ([9]; 2200 nM): 0.0075 ± 0.021
level (log10) (Hexafluoroamylene glycol): 0.0165 ± 0.11
level (log10) [10]: -0.069 ± 0.011
level (log10) [11]: -0.012 ± 0.027

BE3C:IL-1alpha
level (log10) [1]: 0.016 ± 0.0042
level (log10) [2]: -0.006 ± 0.055
level (log10) [3]: 0.0375 ± 0.061
level (log10) ([4]; 740 nM): 0.012 ± 0.011
level (log10) ([4]; 2200 nM): 0.007 ± 0.011
level (log10) [5]: 0.007 ± 0.027
level (log10) [6]: 0.0005 ± 0.0092
level (log10) ([7]; 2200 nM): 0.015 ± 0.021
level (log10) ([7]; 6700 nM): 0.012 ± 0.02
level (log10) ([7]; 20000 nM): 0.0005 ± 0.0092
level (log10) ([7]; 60000 nM): 0.001 ± 0.023
level (log10) [8]: 0.003 ± 0.0085
level (log10) (Perfluoro-1-iodohexane; 2200 nM): -0.006 ± 0.017
level (log10) (Perfluoro-1-iodohexane; 6700 nM): -0.0155 ± 0.013
level (log10) (Perfluoro-1-iodohexane; 20000 nM): -0.009 ± 0.0014
level (log10) (Perfluoro-1-iodohexane; 60000 nM): -0.0195 ± 0.013
level (log10) ([9]; 740 nM): 0.0235 ± 0.005
level (log10) ([9]; 2200 nM): 0.0085 ± 0.022
level (log10) (Hexafluoroamylene glycol): -0.005 ± 0.02
level (log10) [10]: 0.0195 ± 0.035
level (log10) [11]: 0.001 ± 0.03

HDF3CGF:MMP-1
level (log10) [1]: 0.114 ± 0.011
level (log10) [2]: -0.007 ± 0.018
level (log10) [3]: 0.0005 ± 0.015
level (log10) ([4]; 740 nM): -0.002 ± 0.028
level (log10) ([4]; 2200 nM): -0.0115 ± 0.015
level (log10) [5]: 0.01 ± 0.031
level (log10) [6]: 0.0025 ± 0.0092
level (log10) ([7]; 2200 nM): -0.023 ± 0.014
level (log10) ([7]; 6700 nM): -0.015 ± 0.0014
level (log10) ([7]; 20000 nM): -0.013 ± 0.017
level (log10) ([7]; 60000 nM): -0.001 ± 0.0099
level (log10) [8]: -0.0045 ± 0.042
level (log10) (Perfluoro-1-iodohexane; 2200 nM): -0.013 ± 0.0085
level (log10) (Perfluoro-1-iodohexane; 6700 nM): 0.0065 ± 0.0035
level (log10) (Perfluoro-1-iodohexane; 20000 nM): -0.0075 ± 0.029
level (log10) (Perfluoro-1-iodohexane; 60000 nM): -0.034 ± 0.017
level (log10) ([9]; 740 nM): -0.004 ± 0.016
level (log10) ([9]; 2200 nM): 0.003 ± 0.0057
level (log10) (Hexafluoroamylene glycol): -0.023 ± 0.02
level (log10) [10]: 0.009 ± 0.013
level (log10) [11]: 0.009 ± 0.0057

4H:CD106/VCAM-1
level (log10) [1]: 0.0205 ± 0.042
level (log10) [2]: 0.0125 ± 0.03
level (log10) [3]: -0.0265 ± 0.028
level (log10) ([4]; 740 nM): -0.02 ± 0.075
level (log10) ([4]; 2200 nM): -0.052 ± 0.081
level (log10) [5]: -0.0055 ± 0.018
level (log10) [6]: 0.0075 ± 0.019
level (log10) ([7]; 2200 nM): -0.0785 ± 0.046
level (log10) ([7]; 6700 nM): -0.12 ± 0.037
level (log10) ([7]; 20000 nM): -0.143 ± 0.017
level (log10) ([7]; 60000 nM): -0.25 ± 0.028
level (log10) [8]: -0.002 ± 0.0099
level (log10) (Perfluoro-1-iodohexane; 2200 nM): 0.0255 ± 0.012
level (log10) (Perfluoro-1-iodohexane; 6700 nM): 0.013 ± 0.03
level (log10) (Perfluoro-1-iodohexane; 20000 nM): 0.01 ± 0.034
level (log10) (Perfluoro-1-iodohexane; 60000 nM): 0.014 ± 0.068
level (log10) ([9]; 740 nM): 0.0285 ± 0.044
level (log10) ([9]; 2200 nM): 0.013 ± 0.013
level (log10) (Hexafluoroamylene glycol): 0.018 ± 0.021
level (log10) [10]: 0.0075 ± 0.03
level (log10) [11]: 0.016 ± 0.0042
